PubChem BioAssay AID602196, INSERM, 2012
Purpose: 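Modifiers of cisplatin sensitivity in A549 cells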. Cells: human A549 lung cancer cells. Reagent: siRNA pair against human genes. Timing: 48 h transfection before cisplatin; time from cisplatin to read-out not stated. Treatment: cisplatin at a dose killing half of control-siRNA cells; exact dose and duration not given. Detection: 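Shift in cisplatin death relative to control siRNA, from -50 (all cells die) to +50 (no cells die); siRNAs harmful on their own scored 0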. Direction: two-siRNA summed score (-2 to +2): higher = both siRNAs protect from cisplatin killing; -2 means both sensitise; mean protection from cisplatin (shift in death): higher = protection from cisplatin killing. Hit rule: 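Each siRNA scores 0 if harmful alone by LDH or WST-1, otherwise +1 if it reduces and -1 if it increases cisplatin killing; a gene is active when both siRNAs agree (sum +2 or -2)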. Calls: active = both siRNAs shift cisplatin killing the same way; inactive = no consistent shift, or siRNA harmful alone.
In all, the deposit lists about 23,000 reagents; below is a random part of them. Over the whole deposit, 455 (2%) were called active. 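Active includes both protection and sensitisation; some change values fall well beyond the stated -50 to +50 range.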 A number with no mark means an inactive call. Reagents against one gene are numbered here. Not all columns of the deposit are shown. The record does not give: the amount of reagent.

gene	reagent no.	two-siRNA summed score (-2 to +2)	mean protection from cisplatin (shift in death) (%)
XYLT1	1	-1	-16.8
TRAPPC2	1	-1	3.4
LOC441612	1	0	12.8
KDELR2	1	0	1.8
PMF1	1	0	1.4
P3H4	1	0	12.4
ICAM5	1	0	16.1
CCNE1	1	1	12.1
HDHD3	1	0	15.5
ADAMTSL3	1	1	14.5
HINT3	1	1	8.5
OR5AK2	1	1	13.8
IL1A	1	0	5.8
SLC7A11	1	-1	-27.4
AMBRA1	1	0	-0.2
SPARC	1	0	8.7
LINC00029	1	1	8.4
CCDC134	1	0	-0.3
BRD8	1	0	1.3
FIGN	1	0	7
PDP1	1	1	14.2
P2RY4	1	1	7
CCNYL1	1	0	7.4
FLJ33534	1	1	17.8
GUCY1B1	1	0	2.5
GRM5P1	1	0	10.4
UGT2B11	1	1	17.2
DAO	1	1	13.8
ARHGAP32	1	-1	-15.6
RPL24	1	0	19.3
ANKRD26	1	0	-1.4
LOC139363	1	1	20
LOC440101	1	2 (active)	16.3
LOC387884	1	0	0.1
CRMA	1	0	-6.7
CCL4L2	1	0	-1
LOC399866	1	1	2.8
CRY2	1	0	2.6
CRY2	2	0	6.3
STON1-GTF2A1L	1	0	-1.2
FAT2	1	0	-6.5
UPK2	1	1	11.3
ABCA16P	1	1	14.3
SFR1	1	0	9.7
ACSL3	1	2 (active)	17
ERBB2	1	-1	-13.9
TLR2	1	0	0.9
PDCD1LG2	1	0	6.6
DEFB4A	1	-1	-21
LOC255620	1	0	12.1
FLJ43870	1	1	8.7
SCARA5	1	1	4.8
LINC02591	1	0	1.6
GLP2R	1	-1	-10
PBLD	1	0	0
FBXW2	1	0	-16.8
LOC392443	1	2 (active)	26.9

Look-ups from the list:
Entry for DEFB4A under “two-siRNA summed score (-2 to +2)”: -1
Under “mean protection from cisplatin (shift in death) (%)”, ANKRD26 shows -1.4
ADAMTSL3, two-siRNA summed score (-2 to +2) = 1
Under “two-siRNA summed score (-2 to +2)”, LOC139363 has 1
